Experimental data taken from patent US20220175944A1.
No constants are given. Whether binding was seen depends on the method and setting. Some binding calls cover weakened binding; strength is not graded here.

Amino acid sequences for entries named in this document (tags omitted). A change or cut given only in a name is not applied to a line headed by its entry. Chains listed by the source or under a name are the forms on record and can include a tag or linker.
UniProt P10721: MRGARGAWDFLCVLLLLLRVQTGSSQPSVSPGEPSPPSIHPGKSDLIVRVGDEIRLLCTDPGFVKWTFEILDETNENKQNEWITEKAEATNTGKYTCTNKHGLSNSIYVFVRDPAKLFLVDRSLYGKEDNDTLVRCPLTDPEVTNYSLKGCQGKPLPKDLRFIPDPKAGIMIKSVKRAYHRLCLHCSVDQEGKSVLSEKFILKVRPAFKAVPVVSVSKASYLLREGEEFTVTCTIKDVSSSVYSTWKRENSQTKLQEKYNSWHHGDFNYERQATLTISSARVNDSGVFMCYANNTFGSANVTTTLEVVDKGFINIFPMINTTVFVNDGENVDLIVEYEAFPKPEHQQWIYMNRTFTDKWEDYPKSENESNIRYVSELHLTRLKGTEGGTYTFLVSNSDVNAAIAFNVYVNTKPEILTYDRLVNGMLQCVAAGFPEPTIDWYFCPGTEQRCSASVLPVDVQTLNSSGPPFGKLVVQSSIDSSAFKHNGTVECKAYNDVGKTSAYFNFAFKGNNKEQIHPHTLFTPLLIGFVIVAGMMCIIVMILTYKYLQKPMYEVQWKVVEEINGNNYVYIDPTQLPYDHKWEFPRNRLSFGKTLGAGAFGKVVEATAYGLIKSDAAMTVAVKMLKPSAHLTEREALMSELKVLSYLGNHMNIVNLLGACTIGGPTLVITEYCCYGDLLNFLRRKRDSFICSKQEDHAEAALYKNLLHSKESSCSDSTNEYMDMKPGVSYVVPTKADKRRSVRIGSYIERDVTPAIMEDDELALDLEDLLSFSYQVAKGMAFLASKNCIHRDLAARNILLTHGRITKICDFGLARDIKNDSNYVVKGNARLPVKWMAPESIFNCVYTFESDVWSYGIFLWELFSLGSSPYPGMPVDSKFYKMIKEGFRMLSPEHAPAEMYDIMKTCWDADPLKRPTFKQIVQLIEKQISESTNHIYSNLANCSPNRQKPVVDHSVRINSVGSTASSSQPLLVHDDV
Rhesus CD117 (F6V858, form named): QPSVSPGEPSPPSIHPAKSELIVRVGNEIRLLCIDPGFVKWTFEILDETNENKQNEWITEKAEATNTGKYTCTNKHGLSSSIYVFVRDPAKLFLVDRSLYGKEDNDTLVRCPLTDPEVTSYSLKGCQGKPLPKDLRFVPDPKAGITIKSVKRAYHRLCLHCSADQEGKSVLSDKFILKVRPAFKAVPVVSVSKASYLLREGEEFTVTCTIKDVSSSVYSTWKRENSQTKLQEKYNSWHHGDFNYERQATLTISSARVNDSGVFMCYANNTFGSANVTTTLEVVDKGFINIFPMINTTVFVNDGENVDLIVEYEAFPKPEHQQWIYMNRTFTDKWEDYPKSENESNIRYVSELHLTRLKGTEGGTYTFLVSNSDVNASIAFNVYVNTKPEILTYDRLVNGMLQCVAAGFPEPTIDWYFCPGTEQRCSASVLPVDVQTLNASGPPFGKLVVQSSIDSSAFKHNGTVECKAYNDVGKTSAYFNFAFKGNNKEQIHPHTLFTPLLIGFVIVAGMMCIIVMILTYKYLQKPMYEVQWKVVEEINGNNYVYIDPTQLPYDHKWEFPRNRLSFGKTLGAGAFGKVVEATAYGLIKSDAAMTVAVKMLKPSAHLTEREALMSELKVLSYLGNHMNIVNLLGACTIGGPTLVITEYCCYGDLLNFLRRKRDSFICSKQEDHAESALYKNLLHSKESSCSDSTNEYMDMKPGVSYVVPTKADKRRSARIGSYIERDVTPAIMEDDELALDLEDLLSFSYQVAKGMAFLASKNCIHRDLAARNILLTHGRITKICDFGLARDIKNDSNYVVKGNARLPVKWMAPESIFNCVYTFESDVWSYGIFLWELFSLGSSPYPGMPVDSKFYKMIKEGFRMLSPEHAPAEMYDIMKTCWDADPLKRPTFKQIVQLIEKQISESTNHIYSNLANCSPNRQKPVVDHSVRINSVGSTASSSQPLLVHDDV

Experiments:
Assay in all cases: yeast library screen; binding assay not described
[1] = target: Human CD117 isoform 2 (human) (UniProt P10721)
[2] = target: Human CD117 isoform 1 (human) (UniProt P10721)
Rhesus CD117 (rhesus) = Rhesus CD117 (rhesus) (UniProt F6V858)

Measured: binding

B1: Antibody 61 (antibody, V domains shown)
VH: EVQLLESGGGLVQPGGSLRLSCAASGFTFSSYVMIWVRQAPGKGLEWVSSISGDSVTTYYADSVKGRFTISRDNSKNTLYLQMNSLRAEDTAVYYCAKGPPTYHTNYYYMDVWGKGTTVTVSS
VL: DIQMTQSPSSVSASVGDRVTITCRASQGISSWLAWYQQKPGKAPKLLIYAASSLQSGVPSRFSGSGSGTDFTLTISSLQPEDFATYYCQQTNSFPYTFGGGTKVEIKR
binds: all assays above

B2: Antibody 57 (antibody, V domains shown)
VH: QVQLVQSGAEVKKPGSSVKVSCKASGGTFSLYAISWVRQAPGQGLEWMGGIIPHFGLANYAQKFQGRVTITADESTSTAYMELSSLRSEDTAVYYCARGGLDTDEFDLWGRGTLVTVSS
VL: DIQMTQSPSSLSASVGDRVTITCRASQSINSYLNWYQQKPGKAPKLLIYAASSLQSGVPSRFSGSGSGTDFTLTISSLQPEDFATYYCQQGVSDITFGGGTKVEIKR
binds: all assays above

B3: Antibody 55 (antibody, V domains shown)
VH: QVQLVQSGAEVKKPGSSVKVSCKASGGTFRIYAISWVRQAPGQGLEWMGGIIPDFGVANYAQKFQGRVTITADESTSTAYMELSSLRSEDTAVYYCARGGLDTDEFDLWGRGTLVTVSS
VL: DIQMTQSPSSLSASVGDRVTITCRASQSINSYLNWYQQKPGKAPKLLIYAASSLQSGVPSRFSGSGSGTDFTLTISSLQPEDFATYYCQQGVSDITFGGGTKVEIKR
binds: all assays above
